Test results: patent US20140248710
For part of these data: Construct, isoform or probe ends are uncertain for at least one entry. For part of these data: A negative result means that nothing was seen under these conditions. For part of these data: Protein sequences can lack the tags named with them. For part of these data: The direction of at least one scale is not stated here.

Key:
Thrombin [1] = test: inhibition of the protein; conditions: blood clotting; beacon about 240 times more effective than THR3; purified native protein; protein details: gift from Dr. Ray Rezaie (St. Louis University); single-stranded DNA; dose not given here
Thrombin [2] = test: binding assay; conditions: 5 Spacer18 linkers, FRET beacon, purified native protein, protein details: gift from Dr. Ray Rezaie (St. Louis University), Texas Red (THR27), folded or branched DNA
Prothrombin = Prothrombin (UniProt P00734); test: binding assay; conditions: 5 Spacer18 linkers, amino-dT in THR27; reduced beacon sensitivity compared with thrombin; beacon variant not explicitly stated; purified native protein; protein details: Sigma; label: 5' fluorescein (THR21), Texas Red (THR27); folded or branched DNA
Factor Xa = test: binding assay; conditions: 5 Spacer18 linkers, amino-dT in THR27; no effect on beacon signal without thrombin; beacon variant not explicitly stated; purified native protein; protein details: Sigma; label: 5' fluorescein (THR21), Texas Red (THR27); folded or branched DNA
Ovalbumin = biological target: T1, Ovalbumin (UniProt P01012); test: binding assay; conditions: 5 Spacer18 linkers, amino-dT in THR27; no effect on beacon signal; beacon variant not explicitly stated; purified native protein; protein details: Sigma; label: 5' fluorescein (THR21), Texas Red (THR27); folded or branched DNA
T1 sequence (looked up, limits assumed): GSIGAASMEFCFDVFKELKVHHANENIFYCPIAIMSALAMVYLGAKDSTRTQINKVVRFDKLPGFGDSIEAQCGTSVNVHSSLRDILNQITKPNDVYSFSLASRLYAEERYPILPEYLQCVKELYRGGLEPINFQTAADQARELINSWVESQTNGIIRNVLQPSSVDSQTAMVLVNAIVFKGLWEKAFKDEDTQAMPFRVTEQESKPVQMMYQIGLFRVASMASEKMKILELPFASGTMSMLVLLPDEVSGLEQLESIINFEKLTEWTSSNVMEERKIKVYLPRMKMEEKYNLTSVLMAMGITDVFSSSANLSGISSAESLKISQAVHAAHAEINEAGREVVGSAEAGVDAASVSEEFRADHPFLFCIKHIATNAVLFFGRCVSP

[3] = biological target: Single-stranded DNA binding protein (SSB) (Escherichia coli) (UniProt P0AGE0); test: binding assay; conditions: 5 Spacer18 linkers, amino-dT in THR27; no significant beacon response at nM SSB; purified recombinant protein; protein details: Sigma; label: 5' fluorescein (THR21), Texas Red (THR27); folded or branched DNA
Thrombin [4] = test: SELEX; conditions: recurrent clone, purified native protein, protein details: gift from Dr. Ray Rezaie (St. Louis University)
Thrombin [5] = test: EMSA; conditions: purified native protein, protein details: gift from Dr. Ray Rezaie (St. Louis University)
Thrombin [6] = test: competition with a labelled probe; conditions: purified native protein, protein details: gift from Dr. Ray Rezaie (St. Louis University); for binding result: stated only as pM range, single-stranded DNA
Trypsin = Trypsin (UniProt P00760); test: binding assay; conditions: 5 Spacer18 linkers; no beacon signal; purified native protein; protein details: Sigma; label: 3' dabcyl (THR20), 5' fluorescein (THR21); folded or branched DNA
[7] = individual binding not measured, single-stranded …

AGTCCGTGGTAGGGCAGGTTGGGGTGACT [THR3 (60-18 [29])]
functional effect of the aptamer (Thrombin [1]): active

AGATGCGAGTCCGTGGTAGGGCAGGTTGGGGTGACT / GGTTGGTGTGGTTGGCTCGCATCT [THR21/THR27 beacon]
binding result (Thrombin [2]; amino-dT in THR27, label: 5' fluorescein (THR21)): binds
binding signal (Prothrombin): > 20 fold
binding result (Factor Xa): no binding
binding result (Ovalbumin): no binding
binding result [3]: no binding

AGATGCGAGTGAAGGTTGGGGGTACTAGGTATCAATGGGTAGGGTGGTGTAACGCCATAT / GGTTGGTGTGGTTGGCTCGCATCT [THR36/THR27 beacon]
binding result (Thrombin [2]; 20 or 100 nM sensor, label: 5' fluorescein (THR36)): binds

GCAGTAGGTACTATATTGGCTAGGGTGGTCTGC [Clone 5 (= 6, 29, 31, 32, 33)]
selection result (Thrombin [4]; [7]): selected

GGTTGGTGTGGTTGGAGTCCGTGGTAGGGCAGGTTGGGGTGACT [THR7 bivalent]
binding result (Thrombin [5]; 10 Spacer18 between G15D and 60-18[29], 1:1 stoichiometry, single-stranded DNA): binds

GGGGGTACTAGGTATCAATGGGTAGGGTGGTGT [Clone 20 (= 21, 24, 26)]
selection result (Thrombin [4]; verified in sensor as THR35 and THR36, single-stranded DNA): selected

TAGGATGGGTAGGGTGGTCCCAGGAATGGC [Clone 2-8 (= 2-12)]
selection result (Thrombin [4]; [7]): selected

AGTCCGTGGTAGGGCAGGTTGGGGTGACTGGTTGGTGTGGTTGG [THR6 bivalent]
binding result (Thrombin [6]; 10 Spacer18 between 60-18[29] and G15D, weaker than THR7, variant of THR5 bivalent): binds

GGTAGGGTGGTTAAAATAGGGGAATGGCAG [Clone 2-4 (= 2-7, 2-10)]
selection result (Thrombin [4]; [7]): selected

AGATGCGAGGTTGGGGGTACTAGGTATCAATGGGTAGGGTGGTGTAACGC / GGTTGGTGTGGTTGGCTCGCATCT [THR35/THR27 beacon]
binding result (Thrombin [2]; 20 or 100 nM sensor, label: 5' fluorescein (THR35)): binds

GGATGCGTAATGGTTAGGGTGGGTAGGGTATCC [Clone 2 (= 3, 4, 8)]
selection result (Thrombin [4]; [7]): selected

AGTCCGTGGTAGGGCAGGTTGGGGTGACTGGTTGGTGTGGTTGG [THR5 bivalent]
binding result (Thrombin [6]; 5 Spacer18 between 60-18[29] and G15D, slightly weaker than THR6, reduced competition when THR3 in excess): binds

GGGTAGGGTGGTTGTAATAGGGATTGCGAT [Clone 1-1 (= 1-2, 1-4, 1-5, 1-9)]
selection result (Thrombin [4]; [7]): selected

GGTTGGTGTGGTTGGCGCATCT / AGATGCGAGTCCGTGGTAGGGCAGGTTGGGGTGACT [THR20/THR21 beacon]
binding result (Trypsin): no binding
binding result (Thrombin [5]; 5 Spacer18 linkers, stable complex with THR20, THR21 and thrombin, label: 3' dabcyl (THR20), 5' fluorescein (THR21), folded or branched DNA): binds
binding signal (Thrombin [6]; 5 Spacer18 linkers, mixture binds tighter than individual aptamers, label: 3' dabcyl (THR20), 5' fluorescein (THR21), folded or branched DNA): 36 fold

CAGGATGGGTAGGGTGGTCAGCGAAGCAGTAGG [Clone 13 (= 15, 19)]
selection result (Thrombin [4]; [7]): selected
